# Reference: PMC7819943, “Rice protein-binding microarrays: a tool to detect cis-acting elements near promoter regions in rice”
# The chains behind the UniProt entries cited, without tags or fusion partners.
# UniProt Q0JBA9, entry or part of it: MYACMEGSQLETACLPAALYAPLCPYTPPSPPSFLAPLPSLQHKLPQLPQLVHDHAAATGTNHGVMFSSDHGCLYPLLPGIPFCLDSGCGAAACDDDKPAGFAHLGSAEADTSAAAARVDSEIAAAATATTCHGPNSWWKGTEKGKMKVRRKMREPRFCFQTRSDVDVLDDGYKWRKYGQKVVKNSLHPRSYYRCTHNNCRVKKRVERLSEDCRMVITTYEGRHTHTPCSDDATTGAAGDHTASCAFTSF
# Some of the results follow.
# Target: OsWRKY34 (Oryza sativa, UniProt Q0JBA9 1-250)
# Test: protein-binding microarray (RPBM); PBS, 2% BSA, 51.3 ng/ul salmon testes DNA, 50 uM zinc acetate, 200 nM TF, 25 C, 1 h; high values mean tight binding
# Settings: protein: recombinant; tags: N-terminal polyhistidine and DsRed monomer fusion (pET32a); label: CyDye5-dUTP incorporated in the synthesized complementary strand; 3' TTTTT single-stranded linker to array surface; dsDNA, one strand shown
# Method in brief: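 Using Ni–NTA, transcription factors fused N-terminally to polyhistidine and DsRed were purified after expression in E. coli BL21-CodonPlus. These were incubated at 200 nM with a blocked, double-stranded custom Agilent array for 1 h at 25 °C in a buffer containing 50 µM zinc acetate, and the array was washed. The binding signal is per-feature fluorescence intensity (arbitrary units) on an Axon 4000B scanner.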
row,Sequence,binding signal
1,TGGCTGCCCTCTACTGCCATCCAAAAACCCTAGCCGCACCCGGAGTCACCTAGTGCAG,8840 fluorescence intensity (a.u.)
2,CCTCTCGTGCTCCGGTCTCATCGGCGCCCCAACCGCTTGACGGAGTCACCTAGTGCAG,10900 fluorescence intensity (a.u.)
3,CGTCCTGGTGGTGCCCCATGTGCGAGTTCTTCACCTTCGTCGGAGTCACCTAGTGCAG,8190 fluorescence intensity (a.u.)
4,TGCATTGAAGGGTTTCGTTTTTCTAACTGGAGCAGTATACCGGAGTCACCTAGTGCAG,8560 fluorescence intensity (a.u.)
5,AATTCATGTTTGTTTTCCATGTCTTCACATCATATCATACCGGAGTCACCTAGTGCAG,11400 fluorescence intensity (a.u.)
6,GAGAGGATGATATGTGGGTCCTATTTTTTTTGAATGACAACGGAGTCACCTAGTGCAG,8440 fluorescence intensity (a.u.)
7,CTCGCCTCACACCTCTTCTCTAATTATACCATCTCATCCTCGGAGTCACCTAGTGCAG,8060 fluorescence intensity (a.u.)
8,AAACAGTCACGCCTAACTACATGCCTTATAAATTTCCATACGGAGTCACCTAGTGCAG,9130 fluorescence intensity (a.u.)
9,CGCTTTTGCACAGTATTTTTATTTGCAGAGTTATGTTTGTCGGAGTCACCTAGTGCAG,8090 fluorescence intensity (a.u.)
10,CACGGCCTATTCTTGAAATTAGTTTTTTGCACGGTTTATTCGGAGTCACCTAGTGCAG,8200 fluorescence intensity (a.u.)
11,GGTATGAAAAATTTTCTATCCTTTCCTATTGCTTATTTTTCGGAGTCACCTAGTGCAG,9400 fluorescence intensity (a.u.)
12,TGGTATAATGGTCATTTAATTGTTGACCTTGCATGTGAGGCGGAGTCACCTAGTGCAG,15200 fluorescence intensity (a.u.)
13,GCCGACCGCTAGCCGCCCCTGTTTCGTCCGCACTGAGCTACGGAGTCACCTAGTGCAG,9910 fluorescence intensity (a.u.)
14,GAGCTCAACATGCGTGGGCCGCTCCTTCACCGGCTGCAGCCGGAGTCACCTAGTGCAG,8620 fluorescence intensity (a.u.)
15,ACTACTAGATAGTTTCTGGGTTGGGGATGGCCTAATAAATCGGAGTCACCTAGTGCAG,12900 fluorescence intensity (a.u.)
16,TCGCGCCGTCTACTTGTGCTAGAATTCCGACTCCATCCGCCGGAGTCACCTAGTGCAG,11500 fluorescence intensity (a.u.)
17,TAGTGCTGGTTCTGATAACTTTTTGTCTGATGTCCCATCTCGGAGTCACCTAGTGCAG,9940 fluorescence intensity (a.u.)
18,ATCATCGATTGTTTTTTCCTTTCATTTTTAGCTGTGTAGTCGGAGTCACCTAGTGCAG,8080 fluorescence intensity (a.u.)
19,TTGTTGCTTGCTTCCCTACACTTCTCTCTCTCAGCTGCTACGGAGTCACCTAGTGCAG,9260 fluorescence intensity (a.u.)
20,GCACTTCTCCACCTGTATCCAGTTCCAGTTATTGGCGATGCGGAGTCACCTAGTGCAG,8770 fluorescence intensity (a.u.)
21,GTTGTTATATGCCTTGCAGTTTGTCCAATTGAATCAGAATCGGAGTCACCTAGTGCAG,8070 fluorescence intensity (a.u.)
22,ACCTGTGTAGTATTATCTATCCATTGTTGGTGTGTGTTTACGGAGTCACCTAGTGCAG,9250 fluorescence intensity (a.u.)
23,AAGTAGGATCCATTCCTTCTCTCCATTCCCTATATCTTCACGGAGTCACCTAGTGCAG,9080 fluorescence intensity (a.u.)
24,AGGTTTTTCTAAAACCACAAATAAATTTAATTTTCTAATTCGGAGTCACCTAGTGCAG,10500 fluorescence intensity (a.u.)
25,AATGATTCTTGCCGGGGCGCCAGATGTCCCCAAACGTTCGCGGAGTCACCTAGTGCAG,8760 fluorescence intensity (a.u.)
26,TCATCATGCCATAACCAAACCTCATGTTTTTAGTGCACCACGGAGTCACCTAGTGCAG,8510 fluorescence intensity (a.u.)
27,CTGTGAACCTGCTTGTGGCCCGCGGGTGGGGCGGTCGGGCCGGAGTCACCTAGTGCAG,10000 fluorescence intensity (a.u.)

# Reformatted: entries from further up
row	Sequence	binding signal
12	TGGTATAATGGTCATTTAATTGTTGACCTTGCATGTGAGGCGGAGTCACCTAGTGCAG	15200 fluorescence intensity (a.u.)
13	GCCGACCGCTAGCCGCCCCTGTTTCGTCCGCACTGAGCTACGGAGTCACCTAGTGCAG	9910 fluorescence intensity (a.u.)

# Remaining list, next part.

row,Sequence,binding signal
1,TACTCTTCCATCGAACTGTTGGATGTTTCTGTCTTGACTTCGGAGTCACCTAGTGCAG,9210 fluorescence intensity (a.u.)
2,CGAAGATACCTCAACTTAACTTGTCATCGGGTTACAAAATCGGAGTCACCTAGTGCAG,8150 fluorescence intensity (a.u.)
3,TATGTCTTATTCACTCGGCTCTAGGCATCATTGGTATTCTCGGAGTCACCTAGTGCAG,9380 fluorescence intensity (a.u.)
4,CATCTATTTTTCCTCCCTATTTTTTGTGATGTGCCTTACACGGAGTCACCTAGTGCAG,11600 fluorescence intensity (a.u.)
5,GTAATCGCGTTCGTCATCATCTATCTCCTCCACCGCCTGACGGAGTCACCTAGTGCAG,10100 fluorescence intensity (a.u.)
6,CTGTATTTTTCCTATGTTTTGCAATCCTCTGGTTTACAATCGGAGTCACCTAGTGCAG,10400 fluorescence intensity (a.u.)
7,AAAATCTCTCTCTCTCTCTCTCTCTCACACAGCCTCACAGCGGAGTCACCTAGTGCAG,8560 fluorescence intensity (a.u.)
8,CTACCTTGCATCCGTCGCCTGCTCCGCCTCACCATGCCGACGGAGTCACCTAGTGCAG,8760 fluorescence intensity (a.u.)
9,AATAGATAATGCCGTTGTCACATGTTTAACCATCCGTCTTCGGAGTCACCTAGTGCAG,9510 fluorescence intensity (a.u.)
10,TTTCAGCTTTTTCATCTTCACTCATCACTAATATATATATCGGAGTCACCTAGTGCAG,8420 fluorescence intensity (a.u.)
11,GGGTGGGGAAGAAGAGGGGAAGCGGGGAGGAGGAGAGGGACGGAGTCACCTAGTGCAG,9680 fluorescence intensity (a.u.)
12,CTTGCCGCTTCTCTCTTCTTCTTCTTCTTGCAGCGGCCGTCGGAGTCACCTAGTGCAG,8520 fluorescence intensity (a.u.)
13,TCCCGAGCAATTTCACCCTAGCCTAGCCGCCGCCTTTATACGGAGTCACCTAGTGCAG,11800 fluorescence intensity (a.u.)
14,GCTCGTGTTCTTTGCTTCTCCGATCGCCTCCGCGAGTAGGCGGAGTCACCTAGTGCAG,9200 fluorescence intensity (a.u.)
15,CACTCCACTGACATTTCAGTAGTCCACTGCCGTTTTCGCACGGAGTCACCTAGTGCAG,8080 fluorescence intensity (a.u.)
16,CGAGAACGTTAATTGTCATAGCATCGCCCAGCTTTTTTTCCGGAGTCACCTAGTGCAG,8280 fluorescence intensity (a.u.)
17,ACCTCTCCGGTCATAAGTGCATGTCGTTTGATTTCGTTTCCGGAGTCACCTAGTGCAG,11900 fluorescence intensity (a.u.)
18,CGCCCGCAACCACCCGTCCGCATCCGTCGCCTCACGCCTTCGGAGTCACCTAGTGCAG,12600 fluorescence intensity (a.u.)
19,TTTATCTCTACTTTCCAACTCATCTCCTCCGTTTTCCGCGCGGAGTCACCTAGTGCAG,8130 fluorescence intensity (a.u.)
20,ACCTTCGGTGTACTTTTTCCTTAGTCTGCCGGCTTATTTACGGAGTCACCTAGTGCAG,9490 fluorescence intensity (a.u.)
21,TTCTTTTCTTTTTTTCTTTGCGGGGATTTCATATAGGATTCGGAGTCACCTAGTGCAG,8510 fluorescence intensity (a.u.)
22,ACTTTCGGTCTAATCCTGACACATGCACCATGTACATCTGCGGAGTCACCTAGTGCAG,8080 fluorescence intensity (a.u.)
23,GGCTCACCTGCATTGTCTACTACGTCGTGTTCGCGCAGACCGGAGTCACCTAGTGCAG,10200 fluorescence intensity (a.u.)
24,GCCGCCGTAGTTTTCTAAGCTTCAGCCTTTTATTTTGCTTCGGAGTCACCTAGTGCAG,9520 fluorescence intensity (a.u.)
25,TCTAAACTGGTTTATTATCACCCGTCACGGATAACTATTACGGAGTCACCTAGTGCAG,8850 fluorescence intensity (a.u.)
26,TCTGTGTTGGCGAGAGTTGGTGTCTGGAATTGGGCTTGGTCGGAGTCACCTAGTGCAG,9200 fluorescence intensity (a.u.)
27,TTCTTGCCGGAGGAGGGGCAGGGGAGGGAGCCGGGCGGGACGGAGTCACCTAGTGCAG,23500 fluorescence intensity (a.u.)
